Data as given in publication PMC10302582, “Unveiling the Potential of BenzylethyleneAryl–Urea Scaffolds for the Design of New Onco Immunomodulating Agents” (Pharmaceuticals, 2023).

Key:
[1] = system: HT-29 (colon adenocarcinoma); assay: MTT cell proliferation assay, HT-29; format: cell-based, human; details: tumor-selectivity index
Method: (§1) After the supernatant was discarded, we solved the formazan crystal in 100 µL of DMSO. The absorbance was then registered at 550 nm using a plate lector. For all concentrations of any compound, cell viability was expressed as the percentage of the ratio between the mean absorbance of the treated cells and the mean absorbance of the untreated cells. Three to five experiments were performed to establish the IC50 values (i.e., concentration half inhibiting cell proliferation, we used GraphPad Prism 7 software).

[2] = system: A-549 (pulmonary adenocarcinoma); assay: MTT cell proliferation assay, A-549; format: cell-based, human; details: tumor-selectivity index
Method: as §1

Structure (SMILES) | SI (HT-29) (IC50HEK293/IC50HT-29) [1] | SI (A-549) (IC50HEK293/A-549) [2]
COc1ccc(CCCc2cccc(NC(=O)Nc3ccc(Cl)cc3)c2)cc1 [C.6] | 1.0 | 0.2
COc1ccc(CCCc2cccc(NC(=O)Nc3ccccc3OC)c2)cc1 [C.14] | No effect | No effect
COc1ccc(CCCc2cccc(NC(=O)Nc3ccc(Br)cc3)c2)cc1 [C.9] | 1.1 | 
COc1ccc(CCCc2cccc(NC(=O)Nc3ccc(OC)cc3)c2)cc1 [C.12] | No effect | 83
COc1ccc(CCCc2cccc(NC(=O)Nc3ccccc3)c2)cc1 [C.2] | 0.5 | 
COc1ccc(CCCc2cccc(NC(=O)Nc3ccc(F)cc3)c2)cc1 [C.3] | No effect | No effect
COc1ccc(CCCc2cccc(NC(=O)Nc3cccc(F)c3)c2)cc1 [C.4] | <0.2 | <0.2
COc1ccc(CCCc2cccc(NC(=O)Nc3ccccc3Cl)c2)cc1 [C.8] | 0.8 | <0.4
COc1ccc(CCCc2cccc(NC(=O)Nc3cccc(Cl)c3)c2)cc1 [C.7] | 1.0 | 
COc1ccc(CCCc2cccc(NC(=O)Nc3cccc(Br)c3)c2)cc1 [C.10] | 0.8 | 1.1
COc1ccc(CCCc2cccc(NC(=O)Oc3ccccc3)c2)cc1 [C.1] | No effect | No effect
Cc1c(COc2ccc(CN3CCCCC3C(=O)O)cc2Br)cccc1-c1ccccc1 (centres unmarked) [BMS-8, reference compound] | 3 | 10
COc1ccc(CCCc2cccc(NC(=O)Nc3cccc(OC)c3)c2)cc1 [C.13] | 1.9 | 0.8
COc1ccc(CCCc2cccc(NC(=O)Nc3ccccc3F)c2)cc1 [C.5] |  | 0.8
COc1ccc(CCCc2cccc(NC(=O)Nc3ccccc3Br)c2)cc1 [C.11] | 1.8 | 1.3
